Test results from paper PMC10124047.
These are yes or no findings as the source states them, for the method shown. Binding seen in cells or lysates may run through a third protein. Some entries that bind do so weakly or less than the wild type.

The chains behind the UniProt entries cited, without tags or fusion partners.
UniProt P06536: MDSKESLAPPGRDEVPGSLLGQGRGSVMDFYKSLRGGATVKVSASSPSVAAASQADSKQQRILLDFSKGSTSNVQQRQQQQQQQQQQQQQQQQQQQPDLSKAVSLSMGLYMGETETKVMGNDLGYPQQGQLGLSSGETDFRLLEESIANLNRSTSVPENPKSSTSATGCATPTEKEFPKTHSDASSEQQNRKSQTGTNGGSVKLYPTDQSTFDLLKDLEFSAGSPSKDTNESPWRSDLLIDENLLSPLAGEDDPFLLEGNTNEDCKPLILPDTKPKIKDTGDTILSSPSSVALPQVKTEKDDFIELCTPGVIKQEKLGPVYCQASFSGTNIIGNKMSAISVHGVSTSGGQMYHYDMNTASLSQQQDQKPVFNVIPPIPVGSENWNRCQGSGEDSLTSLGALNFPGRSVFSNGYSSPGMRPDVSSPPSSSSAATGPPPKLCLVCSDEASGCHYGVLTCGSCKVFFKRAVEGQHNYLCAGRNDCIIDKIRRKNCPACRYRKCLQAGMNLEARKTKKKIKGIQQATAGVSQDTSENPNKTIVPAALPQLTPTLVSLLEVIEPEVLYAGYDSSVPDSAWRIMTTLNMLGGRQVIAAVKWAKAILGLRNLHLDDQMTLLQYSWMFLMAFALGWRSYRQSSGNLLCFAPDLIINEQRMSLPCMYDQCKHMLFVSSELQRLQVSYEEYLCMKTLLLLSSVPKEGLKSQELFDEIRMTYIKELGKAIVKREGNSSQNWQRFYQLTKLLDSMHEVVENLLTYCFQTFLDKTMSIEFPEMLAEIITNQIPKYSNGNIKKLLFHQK
UniProt Q62986: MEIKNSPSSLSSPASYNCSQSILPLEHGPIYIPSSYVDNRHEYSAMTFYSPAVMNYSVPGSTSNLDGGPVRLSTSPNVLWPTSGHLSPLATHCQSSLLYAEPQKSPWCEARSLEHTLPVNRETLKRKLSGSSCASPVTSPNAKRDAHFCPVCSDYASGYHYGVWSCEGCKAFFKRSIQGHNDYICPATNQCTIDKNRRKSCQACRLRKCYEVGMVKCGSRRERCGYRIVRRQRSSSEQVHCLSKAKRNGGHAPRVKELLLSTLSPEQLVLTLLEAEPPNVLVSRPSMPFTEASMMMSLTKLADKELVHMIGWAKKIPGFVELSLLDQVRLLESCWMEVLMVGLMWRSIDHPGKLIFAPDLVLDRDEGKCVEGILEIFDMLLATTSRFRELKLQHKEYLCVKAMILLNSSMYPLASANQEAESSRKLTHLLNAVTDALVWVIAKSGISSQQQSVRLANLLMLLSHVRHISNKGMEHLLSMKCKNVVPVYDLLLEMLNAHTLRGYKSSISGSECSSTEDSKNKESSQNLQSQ

Target: glucocorticoid receptor (rat (endogenous in primary rat BMMs)) (UniProt P06536)
Test: co-IP; lysate of rat BMMs/osteoclasts, with or without 500 nM dexamethasone; precipitated with GR antibody or mock IgG overnight at 4 °C, protein G magnetic beads, washed with lysis buffer, detected by Western blotting

estrogen receptor β (from UniProt Q62986 1-530)
binding: binds
